Assay results published in paper PMC11980367.
Results are given in words; binding and its absence hold for the method and conditions named. Binding seen in cells or lysates may run through a third protein. Some entries that bind do so weakly or less than the wild type. Tags and fused reporters may be left off the sequences shown.

Chains of the proteins cited; added tags and fusions are not shown.
UniProt O89090: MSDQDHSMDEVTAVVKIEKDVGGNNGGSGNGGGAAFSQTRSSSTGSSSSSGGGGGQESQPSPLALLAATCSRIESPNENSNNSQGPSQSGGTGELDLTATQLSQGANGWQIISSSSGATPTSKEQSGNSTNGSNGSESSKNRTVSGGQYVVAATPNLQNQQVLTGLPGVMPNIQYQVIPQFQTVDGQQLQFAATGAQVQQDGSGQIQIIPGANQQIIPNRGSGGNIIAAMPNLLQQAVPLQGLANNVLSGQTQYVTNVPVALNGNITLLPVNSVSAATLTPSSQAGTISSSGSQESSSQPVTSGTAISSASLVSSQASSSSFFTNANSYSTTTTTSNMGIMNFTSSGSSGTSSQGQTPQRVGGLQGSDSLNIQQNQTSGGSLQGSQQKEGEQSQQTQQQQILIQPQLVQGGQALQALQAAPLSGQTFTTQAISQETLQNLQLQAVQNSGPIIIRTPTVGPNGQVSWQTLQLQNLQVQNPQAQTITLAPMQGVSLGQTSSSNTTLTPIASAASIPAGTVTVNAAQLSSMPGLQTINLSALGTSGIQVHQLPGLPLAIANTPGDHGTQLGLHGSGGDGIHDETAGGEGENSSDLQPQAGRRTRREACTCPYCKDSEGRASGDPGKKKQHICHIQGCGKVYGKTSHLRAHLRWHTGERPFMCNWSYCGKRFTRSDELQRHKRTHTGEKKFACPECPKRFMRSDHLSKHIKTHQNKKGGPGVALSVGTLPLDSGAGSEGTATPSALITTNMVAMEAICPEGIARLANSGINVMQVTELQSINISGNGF

Biological target: mouse SP1 transcription factor (mouse) (UniProt O89090)
Assay: co-IP; reciprocal: 293T cells co-transfected with mSP1 and Myc-tagged mHPSE or hHPSE; NP-40 lysate; precipitated with mouse anti-SP1 on protein A Dynabeads; blotted for HPSE (Fig. S6)

| binding | Binder |
| --- | --- |
| no binding | Myc-tagged human heparanase (hHPSE-V5/His with an added N-terminal Myc tag) (enzyme, UniProt Q9Y251 36-543) QDVVDLDFFTQEPLHLVSPSFLSVTIDANLATDPRFLILLGSPKLRTLARGLSPAYLRFGGTKTDFLIFDPKKESTFEERSYWQSQVNQDICKYGSIPPDVEEKLRLEWPYQEQLLLREHYQKKFKNSTYSRSSVDVLYTFANCSGLDLIFGLNALLRTADLQWNSSNAQLLLDYCSSKGYNISWELGNEPNSFLKKADIFINGSQLGEDFIQLHKLLRKSTFKNAKLYGPDVGQPRRKTAKMLKSFLKAGGEVIDSVTWHHYYLNGRTATKEDFLNPDVLDIFISSVQKVFQVVESTRPGKKVWLGETSSAYGGGAPLLSDTFAAGFMWLDKLGLSARMGIEVVMRQVFFGAGNYHLVDENFDPLPDYWLSLLFKKLVGTKVLMASVQGSKRRKLRVYLHCTNTDNPRYKEGDLTLYAINLHNVTKYLRLPYPFSNKQVDKYLLRPLGPHGLLSKSVQLNGLTLKMVDDQTLPPLMEKPLRPGSSLGLPAFSYSFFVIRNAKVAACI |
| binds | Myc-tagged mouse heparanase (mHPSE-V5/His with an added N-terminal Myc tag) (enzyme, UniProt Q6YGZ1 28-535) DDVVDLEFYTKRPLRSVSPSFLSITIDASLATDPRFLTFLGSPRLRALARGLSPAYLRFGGTKTDFLIFDPDKEPTSEERSYWKSQVNHDICRSEPVSAAVLRKLQVEWPFQELLLLREQYQKEFKNSTYSRSSVDMLYSFAKCSGLDLIFGLNALLRTPDLRWNSSNAQLLLDYCSSKGYNISWELGNEPNSFWKKAHILIDGLQLGEDFVELHKLLQRSAFQNAKLYGPDIGQPRGKTVKLLRSFLKAGGEVIDSLTWHHYYLNGRIATKEDFLSSDVLDTFILSVQKILKVTKEITPGKKVWLGETSSAYGGGAPLLSNTFAAGFMWLDKLGLSAQMGIEVVMRQVFFGAGNYHLVDENFEPLPDYWLSLLFKKLVGPRVLLSRVKGPDRSKLRVYLHCTNVYHPRYQEGDLTLYVLNLHNVTKHLKVPPPLFRKPVDTYLLKPSGPDGLLSKSVQLNGQILKMVDEQTLPALTEKPLPAGSALSLPAFSYGFFVIRNAKIAACI |
